Measured values as given in PMC3823855.
No constants are given. Whether binding was seen depends on the method and setting. Binding seen in cells or lysates may run through a third protein. Some results given as binding are weak or reduced against the parent protein; the word gives no strength.

Biological target: CREB-binding protein (CBP) (mouse (endogenous in CATH.a)), P45481
Assay: co-IP; 100 µg pre-cleared CATH.a total lysate with anti-CBP, anti-CREB or anti-p65 NF-κB antibody and Protein G beads, overnight at 4°C; washes with 50 mM Tris-HCl pH 7.5, 150 mM NaCl, 1% Tween-20, 0.05% Na deoxycholate and 50 mM Tris-HCl pH 7.5, 75 mM NaCl, 0.1% Tween-20; western blot; cells with no ligand, Ang II, Los, Ang II+Los
Conditions: remark: other sources report otherwise

B1: p65 NF-κB, Q04207 1-549 (protein)
chain: MDDLFPLIFPSEPAQASGPYVEIIEQPKQRGMRFRYKCEGRSAGSIPGERSTDTTKTHPTIKINGYTGPGTVRISLVTKDPPHRPHPHELVGKDCRDGYYEADLCPDRSIHSFQNLGIQCVKKRDLEQAISQRIQTNNNPFHVPIEEQRGDYDLNAVRLCFQVTVRDPAGRPLLLTPVLSHPIFDNRAPNTAELKICRVNRNSGSCLGGDEIFLLCDKVQKEDIEVYFTGPGWEARGSFSQADVHRQVAIVFRTPPYADPSLQAPVRVSMQLRRPSDRELSEPMEFQYLPDTDDRHRIEEKRKRTYETFKSIMKKSPFNGPTEPRPPTRRIAVPTRNSTSVPKPAPQPYTFPASLSTINFDEFSPMLLPSGQISNQALALAPSSAPVLAQTMVPSSAMVPLAQPPAPAPVLTPGPPQSLSAPVPKSTQAGEGTLSEALLHLQFDADEDLGALLGNSTDPGVFTDLASVDNSEFQQLLNQGVSMSHSTAEPMLMEYPEAITRLVTGSQRPPDPAPTPLGTSGLPNGLSGDEDFSSIADMDFSALLSQISS
binding: binds
